Laboratory results taken from patent publication US20110263609A1 (priority 2007, published 2011).

System: Jurkat
Experiment: cells
Conditions: Homo sapiens, 72 h
Text: PEER and Jurkat cell lines were purchased from the American Type Culture Collection (ATCC, Manassas, Va.). SIL-ALL and BE-13 were purchased from the Deutsche Sammlung von Mikroorganismen and Zellkulturen GmbH (DSMZ, Braunschweig, Germany).

IC50: > 10 µM
Structure (SMILES): Cc1ccc(NC(=O)c2ccc(CN3CCN(C)CC3)cc2)cc1Nc1nccc(-c2cccnc2)n1 [imatinib]
